# Test results: the supplement of paper PMC12819154, “High-throughput peptide-centric local stability assay extends protein–ligand identification to membrane proteins, tissues and bacteria” (Nature Structural & Molecular Biology, 2025)
# Amino acid sequences for entries named in this document (tags omitted). A change or cut given only in a name is not applied to a line headed by its entry.
# UniProt Q9QY93: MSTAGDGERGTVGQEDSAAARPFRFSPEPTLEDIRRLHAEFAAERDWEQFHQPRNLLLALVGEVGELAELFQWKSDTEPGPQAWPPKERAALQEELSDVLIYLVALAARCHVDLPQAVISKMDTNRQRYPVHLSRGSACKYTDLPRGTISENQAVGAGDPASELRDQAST
# UniProt Q9QYP6, whole entry: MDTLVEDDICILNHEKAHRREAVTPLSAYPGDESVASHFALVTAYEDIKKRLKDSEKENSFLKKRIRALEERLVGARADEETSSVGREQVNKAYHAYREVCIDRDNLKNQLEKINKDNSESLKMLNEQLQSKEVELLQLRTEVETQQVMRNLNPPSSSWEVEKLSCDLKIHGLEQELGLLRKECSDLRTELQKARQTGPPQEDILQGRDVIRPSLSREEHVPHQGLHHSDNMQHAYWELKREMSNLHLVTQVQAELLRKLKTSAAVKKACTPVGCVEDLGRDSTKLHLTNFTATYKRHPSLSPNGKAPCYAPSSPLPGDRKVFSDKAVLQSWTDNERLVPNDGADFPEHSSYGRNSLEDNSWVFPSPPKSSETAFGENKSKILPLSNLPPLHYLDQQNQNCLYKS
# UniProt Q9WU78: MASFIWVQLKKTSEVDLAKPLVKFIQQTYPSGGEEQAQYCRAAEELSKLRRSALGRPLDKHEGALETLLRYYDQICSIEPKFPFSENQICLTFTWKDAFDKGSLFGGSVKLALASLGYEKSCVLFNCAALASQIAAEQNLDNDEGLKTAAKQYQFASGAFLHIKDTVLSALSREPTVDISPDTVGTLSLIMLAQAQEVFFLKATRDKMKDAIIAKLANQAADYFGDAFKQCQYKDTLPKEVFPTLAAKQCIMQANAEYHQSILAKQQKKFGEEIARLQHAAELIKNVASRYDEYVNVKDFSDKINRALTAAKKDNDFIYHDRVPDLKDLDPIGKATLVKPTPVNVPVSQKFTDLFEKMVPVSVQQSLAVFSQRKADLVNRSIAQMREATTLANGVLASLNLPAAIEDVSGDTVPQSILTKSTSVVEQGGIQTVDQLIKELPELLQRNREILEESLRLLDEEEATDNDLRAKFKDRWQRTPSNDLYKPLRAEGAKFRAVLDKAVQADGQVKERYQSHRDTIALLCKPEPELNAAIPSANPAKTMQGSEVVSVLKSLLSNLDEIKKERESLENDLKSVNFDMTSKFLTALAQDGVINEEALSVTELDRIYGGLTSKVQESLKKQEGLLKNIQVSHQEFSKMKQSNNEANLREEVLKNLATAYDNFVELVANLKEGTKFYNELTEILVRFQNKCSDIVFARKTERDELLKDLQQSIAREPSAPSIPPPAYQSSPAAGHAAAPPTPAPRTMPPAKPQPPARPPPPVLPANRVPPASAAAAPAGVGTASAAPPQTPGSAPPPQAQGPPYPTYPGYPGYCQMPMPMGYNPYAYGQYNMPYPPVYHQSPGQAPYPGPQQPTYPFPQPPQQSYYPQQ
# UniProt Q9QYI5: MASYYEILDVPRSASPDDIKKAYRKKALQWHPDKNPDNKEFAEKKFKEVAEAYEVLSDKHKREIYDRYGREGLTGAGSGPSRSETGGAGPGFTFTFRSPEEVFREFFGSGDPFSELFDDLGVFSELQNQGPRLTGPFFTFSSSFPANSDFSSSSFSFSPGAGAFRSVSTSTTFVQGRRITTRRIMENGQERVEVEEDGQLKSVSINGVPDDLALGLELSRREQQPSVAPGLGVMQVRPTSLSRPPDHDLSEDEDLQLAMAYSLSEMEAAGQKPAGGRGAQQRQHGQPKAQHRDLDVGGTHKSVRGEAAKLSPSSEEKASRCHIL
# UniProt Q9WUU9: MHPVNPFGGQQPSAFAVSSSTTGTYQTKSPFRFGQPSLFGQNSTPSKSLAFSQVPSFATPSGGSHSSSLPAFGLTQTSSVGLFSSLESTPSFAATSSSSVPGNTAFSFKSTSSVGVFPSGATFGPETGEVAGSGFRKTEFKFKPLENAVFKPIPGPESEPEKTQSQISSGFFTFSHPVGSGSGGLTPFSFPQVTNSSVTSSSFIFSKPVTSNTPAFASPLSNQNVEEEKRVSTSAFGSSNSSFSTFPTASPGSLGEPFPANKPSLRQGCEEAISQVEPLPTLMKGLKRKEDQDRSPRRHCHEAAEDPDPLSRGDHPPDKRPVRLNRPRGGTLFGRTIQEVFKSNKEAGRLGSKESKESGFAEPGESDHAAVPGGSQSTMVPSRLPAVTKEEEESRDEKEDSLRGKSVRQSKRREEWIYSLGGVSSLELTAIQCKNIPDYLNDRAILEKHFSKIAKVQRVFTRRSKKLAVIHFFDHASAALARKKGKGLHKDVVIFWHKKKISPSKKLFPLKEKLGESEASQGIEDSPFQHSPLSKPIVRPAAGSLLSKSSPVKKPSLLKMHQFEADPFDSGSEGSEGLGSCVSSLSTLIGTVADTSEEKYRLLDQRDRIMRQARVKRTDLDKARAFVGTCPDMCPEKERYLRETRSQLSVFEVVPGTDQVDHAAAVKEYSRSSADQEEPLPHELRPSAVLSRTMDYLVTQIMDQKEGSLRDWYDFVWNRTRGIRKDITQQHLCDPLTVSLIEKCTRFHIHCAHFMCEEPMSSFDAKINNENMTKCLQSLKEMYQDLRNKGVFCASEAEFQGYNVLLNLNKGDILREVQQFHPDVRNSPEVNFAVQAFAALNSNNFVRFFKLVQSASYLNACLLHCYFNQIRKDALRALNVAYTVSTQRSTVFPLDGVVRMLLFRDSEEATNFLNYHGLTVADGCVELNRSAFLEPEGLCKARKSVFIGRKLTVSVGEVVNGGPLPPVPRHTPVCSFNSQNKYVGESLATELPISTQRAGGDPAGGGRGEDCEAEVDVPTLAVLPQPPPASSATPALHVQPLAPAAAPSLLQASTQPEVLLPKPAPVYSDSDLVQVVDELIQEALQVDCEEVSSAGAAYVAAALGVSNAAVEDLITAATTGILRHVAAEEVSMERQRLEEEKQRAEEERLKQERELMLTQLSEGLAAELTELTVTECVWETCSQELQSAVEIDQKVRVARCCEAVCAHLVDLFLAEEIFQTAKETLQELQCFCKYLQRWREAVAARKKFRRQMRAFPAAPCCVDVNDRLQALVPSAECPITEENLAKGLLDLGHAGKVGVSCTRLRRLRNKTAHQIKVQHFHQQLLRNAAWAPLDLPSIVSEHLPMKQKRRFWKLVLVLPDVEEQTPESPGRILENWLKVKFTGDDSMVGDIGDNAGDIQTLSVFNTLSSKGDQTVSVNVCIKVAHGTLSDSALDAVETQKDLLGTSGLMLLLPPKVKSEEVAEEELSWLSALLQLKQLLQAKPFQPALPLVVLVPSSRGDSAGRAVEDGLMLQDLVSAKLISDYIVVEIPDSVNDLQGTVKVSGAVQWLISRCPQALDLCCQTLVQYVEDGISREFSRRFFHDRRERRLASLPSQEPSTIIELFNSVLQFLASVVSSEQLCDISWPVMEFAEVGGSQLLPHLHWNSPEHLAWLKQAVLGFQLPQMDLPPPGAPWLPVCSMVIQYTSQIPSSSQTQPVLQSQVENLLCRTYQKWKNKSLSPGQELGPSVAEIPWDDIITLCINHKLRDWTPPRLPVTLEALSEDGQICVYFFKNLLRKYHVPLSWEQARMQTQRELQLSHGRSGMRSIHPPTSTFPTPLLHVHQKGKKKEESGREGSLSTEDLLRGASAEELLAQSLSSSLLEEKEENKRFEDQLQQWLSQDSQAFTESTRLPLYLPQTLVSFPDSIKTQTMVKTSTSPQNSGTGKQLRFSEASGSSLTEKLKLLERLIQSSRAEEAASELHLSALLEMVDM
# UniProt Q9QYK5: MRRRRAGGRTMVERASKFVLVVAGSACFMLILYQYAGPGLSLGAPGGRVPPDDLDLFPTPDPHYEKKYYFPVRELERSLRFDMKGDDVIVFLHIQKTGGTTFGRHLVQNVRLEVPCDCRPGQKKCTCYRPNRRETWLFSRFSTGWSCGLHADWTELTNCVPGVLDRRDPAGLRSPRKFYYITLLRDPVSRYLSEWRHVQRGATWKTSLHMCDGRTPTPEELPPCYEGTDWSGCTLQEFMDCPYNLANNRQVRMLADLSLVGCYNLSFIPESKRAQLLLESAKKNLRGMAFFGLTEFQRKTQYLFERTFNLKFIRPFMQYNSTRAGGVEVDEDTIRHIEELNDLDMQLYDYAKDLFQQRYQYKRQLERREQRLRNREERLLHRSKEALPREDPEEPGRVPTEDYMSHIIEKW
# UniProt Q9WU28, whole entry: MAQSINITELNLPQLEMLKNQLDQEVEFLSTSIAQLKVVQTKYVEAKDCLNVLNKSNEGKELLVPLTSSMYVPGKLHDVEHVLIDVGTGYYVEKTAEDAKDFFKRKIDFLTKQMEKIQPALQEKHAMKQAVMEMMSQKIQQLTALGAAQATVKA
# UniProt Q9R0M4: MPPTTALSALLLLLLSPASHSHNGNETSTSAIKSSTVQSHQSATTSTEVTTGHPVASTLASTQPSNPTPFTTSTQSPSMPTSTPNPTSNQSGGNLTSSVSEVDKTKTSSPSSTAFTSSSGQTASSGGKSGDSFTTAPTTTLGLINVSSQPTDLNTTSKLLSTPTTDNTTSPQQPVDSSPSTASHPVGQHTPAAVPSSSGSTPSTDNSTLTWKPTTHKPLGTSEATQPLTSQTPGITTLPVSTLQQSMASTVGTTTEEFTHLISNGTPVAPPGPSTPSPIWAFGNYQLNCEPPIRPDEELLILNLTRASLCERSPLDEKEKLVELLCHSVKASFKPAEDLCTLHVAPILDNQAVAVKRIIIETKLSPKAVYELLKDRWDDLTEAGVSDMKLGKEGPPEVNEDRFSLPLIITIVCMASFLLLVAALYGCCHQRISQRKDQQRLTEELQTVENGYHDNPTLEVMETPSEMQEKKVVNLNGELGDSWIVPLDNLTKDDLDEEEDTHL
# UniProt Q9WUZ9: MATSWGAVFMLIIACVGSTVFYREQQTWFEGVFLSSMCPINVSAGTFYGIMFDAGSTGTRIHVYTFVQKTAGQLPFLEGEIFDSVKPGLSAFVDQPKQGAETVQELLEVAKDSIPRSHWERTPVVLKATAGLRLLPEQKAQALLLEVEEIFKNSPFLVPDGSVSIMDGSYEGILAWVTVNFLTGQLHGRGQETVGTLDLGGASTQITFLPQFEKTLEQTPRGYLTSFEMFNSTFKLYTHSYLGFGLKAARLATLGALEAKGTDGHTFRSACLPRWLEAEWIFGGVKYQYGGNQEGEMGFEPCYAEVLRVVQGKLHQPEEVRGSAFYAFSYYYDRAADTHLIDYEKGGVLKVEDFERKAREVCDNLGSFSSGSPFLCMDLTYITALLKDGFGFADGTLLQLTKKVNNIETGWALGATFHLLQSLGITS
# UniProt Q9WV98: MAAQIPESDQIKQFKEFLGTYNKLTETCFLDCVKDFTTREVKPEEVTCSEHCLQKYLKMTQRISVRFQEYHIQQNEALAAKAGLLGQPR
# UniProt Q9R061: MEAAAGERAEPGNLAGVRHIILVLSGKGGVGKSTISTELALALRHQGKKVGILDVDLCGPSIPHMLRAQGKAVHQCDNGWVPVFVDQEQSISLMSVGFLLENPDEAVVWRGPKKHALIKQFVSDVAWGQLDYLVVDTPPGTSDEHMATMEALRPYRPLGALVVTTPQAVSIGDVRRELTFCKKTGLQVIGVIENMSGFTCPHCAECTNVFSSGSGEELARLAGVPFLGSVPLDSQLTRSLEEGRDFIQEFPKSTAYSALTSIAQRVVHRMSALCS
# UniProt Q9WUU7: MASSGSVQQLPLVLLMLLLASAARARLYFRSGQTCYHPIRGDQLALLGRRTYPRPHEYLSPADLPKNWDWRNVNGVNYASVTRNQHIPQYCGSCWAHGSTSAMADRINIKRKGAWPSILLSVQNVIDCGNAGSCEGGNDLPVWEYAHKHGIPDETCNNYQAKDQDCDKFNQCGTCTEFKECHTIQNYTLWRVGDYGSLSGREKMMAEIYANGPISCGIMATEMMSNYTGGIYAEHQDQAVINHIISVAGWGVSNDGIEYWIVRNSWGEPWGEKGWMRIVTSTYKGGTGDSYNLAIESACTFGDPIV
# UniProt Q9QXD8: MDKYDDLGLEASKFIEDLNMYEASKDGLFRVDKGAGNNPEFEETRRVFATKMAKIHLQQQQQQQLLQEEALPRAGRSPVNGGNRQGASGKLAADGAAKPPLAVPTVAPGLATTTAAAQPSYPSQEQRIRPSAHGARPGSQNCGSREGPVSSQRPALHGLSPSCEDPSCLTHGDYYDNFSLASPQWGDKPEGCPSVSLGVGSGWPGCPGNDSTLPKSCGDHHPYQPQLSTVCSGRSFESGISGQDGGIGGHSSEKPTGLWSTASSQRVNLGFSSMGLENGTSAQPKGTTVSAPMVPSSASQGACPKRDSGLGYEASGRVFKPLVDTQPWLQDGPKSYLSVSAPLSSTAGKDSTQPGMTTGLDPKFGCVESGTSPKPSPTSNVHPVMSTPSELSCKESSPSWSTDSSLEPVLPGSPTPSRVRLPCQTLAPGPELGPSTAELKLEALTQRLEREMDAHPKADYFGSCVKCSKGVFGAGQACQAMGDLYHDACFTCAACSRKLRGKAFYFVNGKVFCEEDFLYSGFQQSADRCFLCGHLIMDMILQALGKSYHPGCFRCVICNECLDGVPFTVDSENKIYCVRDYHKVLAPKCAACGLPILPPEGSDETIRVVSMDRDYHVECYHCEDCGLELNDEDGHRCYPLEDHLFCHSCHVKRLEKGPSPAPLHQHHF
# The other results are listed elsewhere or left out. Small differences around the control level are noise.
# Compound: CN[C@@H]1C[C@H]2O[C@@](C)([C@@H]1OC)n1c3ccccc3c3c4c(c5c6ccccc6n2c5c31)C(=O)NC4 [staurosporine]
# Test: log2 fold change of tryptic peptide abundance, ligand vs vehicle (limited proteolysis) (log2 ratio); higher = more trypsin-susceptible (destabilized)
# Conditions: ligand concentration: 20 uM; sample: mouse liver crude lysate; replicate design: treated separately
row,Target,log2 fold change
1,"UniProt Q9WV32 (peptide sequence: NSVSQISVLSGGK, peptide start residue: 327)",-0.239
2,"UniProt Q9QY93 (peptide sequence: YPVHLSR, peptide start residue: 129)",-0.276
3,"UniProt Q9WUH7 (peptide sequence: MNGNSYVLLR, peptide start residue: 790)",-0.0591
4,"UniProt Q9QYP6 (peptide sequence: LHLTNFTATYK, peptide start residue: 286)",0.455
5,"UniProt Q9WU78 (peptide sequence: TMQGSEVVSVLK, peptide start residue: 542)",-0.185
6,"UniProt Q9QYI5 (peptide sequence: DLDVGGTHK, peptide start residue: 293)",-0.109
7,"UniProt Q9R0A1 (peptide sequence: VRPPLASFR, peptide start residue: 860)",0.168
8,"UniProt Q9QZQ8 (peptide sequence: NCLALADDRK, peptide start residue: 293)",-0.647
9,"UniProt Q9QXL2 (peptide sequence: MKWQLLER, peptide start residue: 923)",0.272
10,"UniProt Q9QYK4 (peptide sequence: TSLHMCDGR, peptide start residue: 206)",0.475
11,"UniProt Q9QXJ4 (peptide sequence: MLAGKPPVEGHVPTWGFNSVR, peptide start residue: 95)",0.347
12,"UniProt Q9R0P3 (peptide sequence: KAFSGYLGPDESK, peptide start residue: 186)",-0.247
13,"UniProt Q9WUR2 (peptide sequence: KNAISFQMYR, peptide start residue: 159)",0.224
14,"UniProt Q9QZI8 (peptide sequence: SDGSLDDGDGIHR, peptide start residue: 361)",-0.00247
15,"UniProt Q9WUU9 (peptide sequence: TSTSPQNSGTGK, peptide start residue: 1914)",-0.387
16,"UniProt Q9QYB1 (peptide sequence: NSRPEANEALER, peptide start residue: 131)",-0.0717
17,"UniProt Q9R0P6 (peptide sequence: EIPIVHR, peptide start residue: 91)",0.149
18,"UniProt Q9R060 (peptide sequence: HKLLVLSGK, peptide start residue: 55)",0.371
19,"UniProt Q9WUQ2 (peptide sequence: LFTVQIPHKR, peptide start residue: 264)",0.797
20,"UniProt Q9WV03 (peptide sequence: QREQMEQMK, peptide start residue: 24)",0.971

# At a glance, some entries already given.
row,Target,log2 fold change
2,"UniProt Q9QY93 (peptide sequence: YPVHLSR, peptide start residue: 129)",-0.276
3,"UniProt Q9WUH7 (peptide sequence: MNGNSYVLLR, peptide start residue: 790)",-0.0591

# Next records follow.

row,Target,log2 fold change
1,"UniProt Q9QYK5 (peptide sequence: HLVQNVR, peptide start residue: 105)",-0.058
2,"UniProt Q9WUB3 (peptide sequence: GLAGVENVSELKK, peptide start residue: 18)",0.128
3,"UniProt Q9WUM4 (peptide sequence: SIKETICSQDER, peptide start residue: 450)",-0.378
4,"UniProt Q9QYR7 (peptide sequence: MHAFTTQNPNR, peptide start residue: 1)",0.0986
5,"UniProt Q9WTV7 (peptide sequence: QMENSASESASARPSR, peptide start residue: 174)",0.315
6,"UniProt Q9WU28 (peptide sequence: IQPALQEK, peptide start residue: 117)",-0.171
7,"UniProt Q9WV34 (peptide sequence: TLVLIGAQGVGR, peptide start residue: 353)",-0.265
8,"UniProt Q9WV54 (peptide sequence: SGEGCVITR, peptide start residue: 287)",-0.665
9,"UniProt Q9QZ85 (peptide sequence: KIISQEILNLIELR, peptide start residue: 32)",-0.579
10,"UniProt Q9R0M4 (peptide sequence: RIIIETK, peptide start residue: 357)",-0.268
11,"UniProt Q9WUZ9 (peptide sequence: GGVLKVEDFER, peptide start residue: 346)",0.49
12,"UniProt Q9WV98 (peptide sequence: EFLGTYNK, peptide start residue: 16)",-0.381
13,"UniProt Q9R0E1 (peptide sequence: LTHYHEGLPTTR, peptide start residue: 718)",0.318
14,"UniProt Q9R061 (peptide sequence: AEPGNLAGVR, peptide start residue: 9)",-0.0897
15,"UniProt Q9R062 (peptide sequence: TKPWNYTYNPQTK, peptide start residue: 217)",-0.0743
16,"UniProt Q9QYF9 (peptide sequence: GNRPVILTYHDIGLNHK, peptide start residue: 52)",0.146
17,"UniProt Q9WUU7 (peptide sequence: NQHIPQYCGSCWAHGSTSAMADR, peptide start residue: 84)",-0.139
18,"UniProt Q9QZ25 (peptide sequence: LGQGPGKLQ, peptide start residue: 492)",-0.219
19,"UniProt Q9QXD8 (peptide sequence: VDKGAGNNPEFEETR, peptide start residue: 31)",0.267
20,"UniProt Q9QYF1 (peptide sequence: IHFHNLQGEK, peptide start residue: 182)",0.534
